No constants are given. Whether binding was seen depends on the method and setting. In cells and extracts the contact can be indirect. Some results given as binding are weak or reduced against the parent protein; the word gives no strength.
Key:
[1] = molecular target: T1, phosphorylated signal transducer and activator of transcription-6 (p-STAT6) (human (endogenous in HFL-1 and BEAS-2B)) (UniProt P42226); experiment: co-IP; lysate of HFL-1 cells with or without IL-4 (20 ng/mL, 24 h); 1 ug anti-p-STAT6 or anti-PIAS1 antibody overnight at 4 C, anti-IgG as negative control; Protein-A/G agarose 4 h at 4 C; five washes with cold PBS; Western blotting
T1 sequence (chain, phosphorylated (p-STAT6); the site is not printed): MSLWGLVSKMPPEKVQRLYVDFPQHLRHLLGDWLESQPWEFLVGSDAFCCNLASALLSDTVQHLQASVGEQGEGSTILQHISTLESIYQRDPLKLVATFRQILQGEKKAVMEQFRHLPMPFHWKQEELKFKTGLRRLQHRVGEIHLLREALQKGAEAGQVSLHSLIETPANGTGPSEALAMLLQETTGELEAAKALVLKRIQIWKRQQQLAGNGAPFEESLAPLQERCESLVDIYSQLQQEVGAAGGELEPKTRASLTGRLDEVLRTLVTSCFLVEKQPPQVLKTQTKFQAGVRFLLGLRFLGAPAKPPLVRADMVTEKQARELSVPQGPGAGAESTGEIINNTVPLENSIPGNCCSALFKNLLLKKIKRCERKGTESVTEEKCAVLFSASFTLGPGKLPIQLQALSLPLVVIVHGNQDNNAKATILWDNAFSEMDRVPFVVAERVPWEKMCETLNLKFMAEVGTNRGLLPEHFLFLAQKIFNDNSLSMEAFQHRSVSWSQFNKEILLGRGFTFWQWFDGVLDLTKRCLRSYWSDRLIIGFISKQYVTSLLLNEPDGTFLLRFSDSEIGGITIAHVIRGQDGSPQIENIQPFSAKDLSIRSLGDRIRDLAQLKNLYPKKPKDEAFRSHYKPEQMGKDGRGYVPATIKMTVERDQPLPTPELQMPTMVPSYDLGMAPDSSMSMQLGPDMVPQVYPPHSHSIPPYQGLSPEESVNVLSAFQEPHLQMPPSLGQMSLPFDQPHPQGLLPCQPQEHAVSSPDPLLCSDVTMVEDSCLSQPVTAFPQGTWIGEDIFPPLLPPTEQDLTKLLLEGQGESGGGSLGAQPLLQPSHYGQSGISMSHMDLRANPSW

Chains of the proteins cited; added tags and fusions are not shown.
UniProt O75925: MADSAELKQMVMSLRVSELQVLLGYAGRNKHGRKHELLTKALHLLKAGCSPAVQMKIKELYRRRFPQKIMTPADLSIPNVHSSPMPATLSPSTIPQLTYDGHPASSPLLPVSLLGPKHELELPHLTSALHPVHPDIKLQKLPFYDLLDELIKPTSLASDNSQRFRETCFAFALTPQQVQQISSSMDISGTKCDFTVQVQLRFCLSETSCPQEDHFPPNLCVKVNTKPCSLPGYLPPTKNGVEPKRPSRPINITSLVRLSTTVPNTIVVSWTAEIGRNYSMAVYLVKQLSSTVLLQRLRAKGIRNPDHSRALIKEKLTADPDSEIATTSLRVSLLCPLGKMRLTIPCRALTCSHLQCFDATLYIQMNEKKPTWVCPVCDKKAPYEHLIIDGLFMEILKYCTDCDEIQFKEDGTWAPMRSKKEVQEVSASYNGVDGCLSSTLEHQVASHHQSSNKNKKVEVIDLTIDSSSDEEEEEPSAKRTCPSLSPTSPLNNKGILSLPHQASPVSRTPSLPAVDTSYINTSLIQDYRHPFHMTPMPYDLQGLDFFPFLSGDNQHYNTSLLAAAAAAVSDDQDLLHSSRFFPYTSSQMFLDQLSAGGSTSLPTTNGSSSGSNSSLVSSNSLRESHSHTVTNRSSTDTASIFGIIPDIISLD

[2] = molecular target: T1, phosphorylated signal transducer and activator of transcription-6 (p-STAT6) (human (endogenous in HFL-1 and BEAS-2B)); experiment: co-IP; lysate of BEAS-2B cells with or without IL-4 (20 ng/mL, 24 h); 1 ug anti-p-STAT6 or anti-PIAS1 antibody overnight at 4 C, anti-IgG as negative control; Protein-A/G agarose 4 h at 4 C; five washes with cold PBS; Western blotting

protein inhibitor of activated STAT 1 (PIAS1) (from UniProt O75925 1-651)
binding [1]: binds
binding [2]: no binding (condition: in BEAS-2B cells)

— publication PMC4766407
